Laboratory results: doi:10.1101/2025.07.16.665076
No constants are given. Whether binding was seen depends on the method and setting. In cells and extracts the contact can be indirect. These calls come from enrichment with a bait or labelling near it, and not all partners need be listed. Sequences can lack the tags named with a protein. Each block holds one binder with its values, some of them ahead of it.

Target: T1, His-ALFA-SAA1-N terminus (SAA1-N) (human) (UniProt P0DJI8)
T1 sequence: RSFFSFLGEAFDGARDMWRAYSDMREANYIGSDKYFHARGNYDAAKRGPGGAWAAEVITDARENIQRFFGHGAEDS
Experiment: affinity purification with mass spectrometry

B2: APOD (bovine plasma) (protein, UniProt Q32KY0 21-189)
chain: QAFHLGKCPHPPVQENFDVNKYLGKWYEIEKIPVSFEKGSCIQANYSLKENGNVEVINKELRADGTVNQIEGEATPENITEPAKLAVKFFWFMPSAPYWVLATDYENYALVYSCTTIIWLFHMDHVWILGRNPYLPPETVTYLKDILTSNNIEVEKMTITDQVNCPESM
binding: binds

B3: PLA2G7 (bovine plasma) (protein, UniProt Q28017 22-444)
chain: FDWQDLNPVAYIESPAWVSKIQALMAAANIGQSKIPRGNGSYSVGCTDLMFDYTNKGTFLRLYYPSQDDDHSDTLWIPNKEYFLGLSKFLGTHWLVGKIMGLFFGSMTTPAAWNAHLRTGEKYPLIIFSHGLGAFRTIYSAIGIDLASHGFIVAAVEHRDGSASSTYYFKDQSAVEIGNKSWLYLRTLKRGEEEFPLRNEQLRQRAKECSQALSLILDIDHGRPVTNVLDLEFDVEQLKDSIDRDKIAIIGHSFGGATVIQTLSEDQRFRCGIALDAWMFPVGDEVYSRIPQPLFFINSERFQYPSNIIRMKKCFLPDRERKMITIRGSVHQNFVDFTFATSKIIGYLFTLKGDIDSNVAISLSNKASLAFLQKHLGLQKDFDQWDSLVEGEDHNLIPGTNINTTNHQAILQNSTGIERPNLD
binding: binds

B4: SPP2 (bovine plasma) (protein, UniProt Q27967 24-203)
chain: FPVYDYDPASLKEALSASVAKVNSQSLSPYLFRAFRSSVKRVNALDEDSLTMDLEFRIQETTCRRESEADPATCDFQRGYHVPVAVCRSTVRMSAEQVQNVWVRCHWSSSSGSSSSEEMFFGDILGSSTSRNSYLLGLTPDRSRGEPLYEPSREMRRNFPLGNRRYSNPWPRARVNPGFE
binding: binds

B5: apolipoprotein E (bovine plasma) (protein, UniProt Q03247 19-316)
chain: DMEGELGPEEPLTTQQPRGKDSQPWEQALGRFWDYLRWVQTLSDQVQEELLNTQVIQELTALMEETMKEVKAYKEELEGQLGPMAQETQARVSKELQAAQARLGSDMEDLRNRLAQYRSEVQAMLGQSTEELRARMASHLRKLPKRLLRDADDLKKRLAVYQAGASEGAERSLSAIRERFGPLVEQGQSRAATLSTLAGQPLLERAEAWRQKLHGRLEEVGVRAQDRLDKIRQQLEEVHAKVEEQGNQMRLQAEAFQARLRSWFEPLVEDMQRQWAGLVEKVQLALRPSPTSPPSENH
binding: binds

Next, values leading:

binding: binds
B1: GPLD1 (bovine plasma) (enzyme, UniProt P80109 24-839)
chain: CGISTHIEIGHRALEFLHLQDGSINYKELLLRHQDAYQAGSVFPDSFYPSICERGQFHDVSESTHWTPFLNASVHYIRKNYPLPWDEDTEKLVAFLFGITSHMVADVNWHSLGIEQGFLRTMAAIDFHNSYPEAHPAGDFGGDVLSQFEFKFNYLSRHWYVPAEDLLGIYRELYGRIVITKKAIVDCSYLQFLEMYAEMLAISKLYPTYSVKSPFLVEQFQEYFLGGLEDMAFWSTNIYHLTSYMLKNGTSNCNLPENPLFITCGGQQNNTHGSKVQKNGFHKNVTAALTKNIGKHINYTKRGVFFSVDSWTMDSLSFMYKSLERSIREMFIGSSQPLTHVSSPAASYYLSFPYTRLGWAMTSADLNQDGYGDLVVGAPGYSHPGRIHVGRVYLIYGNDLGLPRIDLDLDKEAHGILEGFQPSGRFGSAVAVLDFNVDGVPDLAVGAPSVGSEKLTYTGAVYVYFGSKQGQLSSSPNVTISCQDTYCNLGWTLLAADVNGDSEPDLVIGSPFAPGGGKQKGIVAAFYSGSSYSSREKLNVEAANWMVKGEEDFAWLGYSLHGVNVNNRTLLLAGSPTWKDTSSQGHLFRTRDEKQSPGRVYGYFPPICQSWFTISGDKAMGKLGTSLSSGHVMVNGTRTQVLLVGAPTQDVVSKVSFLTMTLHQGGSTRMYELTPDSQPSLLSTFSGNRRFSRFGGVLHLSDLDNDGLDEIIVAAPLRITDATAGLMGEEDGRVYVFNGKQITVGDVTGKCKSWVTPCPEEKAQYVLISPEAGSRFGSSVITVRSKEKNQVIIAAGRSSLGARLSGVLHIYRLGQD

binding: binds
B6: SERPINF2 (bovine plasma) (protein, UniProt P28800 41-492)
chain: AQQKLPPLSLLKLDNQEPGGQIAPKKAPEDCKLSPTPEQTRRLARAMMTFTTDLFSLVAQSSTRPNLILSPLSVALALSHLALGAQNQTLQRLKEVLHADSGPCLPHLLSRLCQDLGPGAFRLAARMYLQKGFPIKEDFLEQSEQLFGAKPMSLTGMKGEDLANINRWVKEATEGKIEDFLSDLPDDTVLLLLNAIHFQGFWRSKFDPNLTQRGAFHLDEQFTVPVDMMQALTYPLHWFLLEQPEIQVAHFPFKNNMSFVVLMPTRFEWNASQVLANLTWDILHQPSLSERPTKVQLPKLHLKYQLDLVATLSQLGLQELFQAPDLRGISDERLVVSSVQHQSALELSEAGVQAAAATSTAMSRMSLSSFIVNRPFLFFILEDSTSLPLFVGSVRNPNPGAQPERKEQQDSPDGKDSFQDHKGLPRGDKPFDPDLKLGPPSEEDYAQPSSPK
